Screening data, single-dose tests

Toxoplasma: 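Assay of Toxoplasma gondii numbers, read through their beta-galactosidase reporter with a colour substrate. Compounds at 10 µM. Higher reads as fewer parasites (inferred from which compounds were picked for retests). Of about 67,000 compounds tested this way, about 260 (0.38%) reached 50% or more in at least one test.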
T. brucei: 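Whole-parasite assay of Trypanosoma brucei over 72 hours; the read-out is not stated. Tested at 30 µM. The record gives no direction; compounds that gave an IC50 in retests scored well above the rest, so higher reads as stronger inhibition. Values scatter widely below zero; nearly all retest evidence comes from the higher of the two concentrations used. About 64,000 compounds were tested under these conditions; 1.5% (about 940) showed 50% or more at least once.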

Values are the deposited “Percent Effect”, in %. The controls that fix the scale are not given in the record; negative values are as filed. This is an unselected part of the compounds tested. A dash means the value is not listed here; it may have been measured.

| # | Compound | Toxoplasma | T. brucei |
|---|---|---|---|
| 1 | `CCN1CCOC(CNCc2ccccc2OCC(=O)N(C)C)C1` (stereo unspecified) | 2.197 | 32.57 |
| 2 | `CCc1nc(CN2CCCN(C(=O)C3CCOC3)CC2)cs1` (stereo unspecified) | 1.459 | -18.83 |
| 3 | `COc1ccc(C(NCc2cccc(O)c2)C2CC2)cc1` (stereo unspecified) | 4.681 | -1.044 |
| 4 | `O=C(c1ccsc1)N1CCc2c(CN3CCCC3)n[nH]c2C1` | 2.094 | 4.39 |
| 5 | `CN(C)CC1CSCCCN1S(=O)(=O)Cc1ccc(C(F)(F)F)cc1` (stereo unspecified) | 4.891 | 13.82 |
| 6 | `Cc1cc(CS(=O)(=O)CC(=O)N2c3ccccc3CC2C)no1` (stereo unspecified) | 2.862 | -181.9 |
| 7 | `CC(C)CC(NC(=O)CSCC(N)=O)c1cccs1` (stereo unspecified) | 0.1873 | -37.03 |
| 8 | `Cc1ccsc1C(CNC(=O)c1cc(=O)[nH]c(=O)[nH]1)N(C)C` (stereo unspecified) | 10.85 | -45.05 |
| 9 | `Cc1nc(Nc2ncccn2)cc(C2CCN(CC(C)C)C2)n1` (stereo unspecified) | 9.464 | 4.591 |
| 10 | `CN(C(=O)c1ccccn1)c1nc2c(s1)CCc1c-2cnn1C` | -4.036 | 25 |
| 11 | `OC(CNCc1nnc2ccccn12)c1ccc2c(c1)OCCCO2` (stereo unspecified) | 24.47 | -42.05 |
| 12 | `O=C(NC1CCCCC1)c1cc(Br)cnc1N1CCCCC1` | -11.27 | 13 |
| 13 | `CN1CCN(Cc2ccccc2CNC(=O)c2ccc(Br)cc2)CC1` | 1.116 | 14.8 |
| 14 | `Cc1nn(C)c(C)c1C(=O)N1CCN(C(=O)CCC2CCCCC2)CC1` | 5.775 | -49.79 |
| 15 | `Cc1cccc(C2(CNC(=O)CO)CCCC2)c1` | -10.41 | - |
| 16 | `Cc1n[nH]c(C)c1CCC(=O)NCC1CCCN(C2CCCC2)C1` (stereo unspecified) | -7.706 | -49.75 |
| 17 | `Cc1nsc(N2CCN(C(=O)Nc3cccc(C#N)c3)CC2)n1` | -4.933 | 18.21 |
| 18 | `Cc1noc(C2CCN(C(=O)CCCNc3ncccn3)CC2)n1` | -46.71 | -0.7808 |
| 19 | `O=C(COC1CCCC1)N1CCC(C(O)c2ccc(F)cc2)CC1` (stereo unspecified) | 0.3121 | 2.487 |
| 20 | `COc1c(CNC(c2ccccc2)c2nccn2C)c(C)nn1C` (stereo unspecified) | 12.42 | 10.91 |
| 21 | `Cc1ccn2c(=O)cc(CSCC(=O)Nc3nnc(C(C)C)s3)nc2c1` | 4.648 | -12.06 |
| 22 | `c1ncn(CC2CCCCN2Cc2csc(C3CCCC3)n2)n1` (stereo unspecified) | 3.07 | -3.853 |
| 23 | `COc1ccc2[nH]c3c(c2c1)CN(c1cc(NCCO)nc(N)n1)CC3` | -1.551 | -2.31 |
| 24 | `O=C(Cc1csc(-c2ccoc2)n1)NCCCN1CCCCC1` | -8.24 | -1.717 |
| 25 | `O=C(NCc1nc2ccccc2[nH]1)c1cnn2c1OCCC2` | 4.891 | 33.37 |
| 26 | `CN1CCN(C2COC3(CCN(Cc4ccc(F)cc4)CC3)C2)CC1.O=C(O)C(F)(F)F.O=C(O)C(F)(F)F.O=C(O)C(F)(F)F` (stereo unspecified) | 10.56 | -274.1 |
| 27 | `CC(=O)NCCc1cn(-c2cc(F)ccc2C)cn1` | - | -16.44 |
| 28 | `CC(C)C(O)CNC(=O)Nc1ccc(F)c(Cl)c1` (stereo unspecified) | 1.073 | -50.33 |
| 29 | `Cc1ncsc1CN1CCC2(CC1)CC(=O)N(Cc1ccc(Cl)cc1)C2` | 8.166 | 7.752 |
| 30 | `NC(=O)c1ccc(C2CCCN2C(=O)Cn2nc3ccccc3n2)s1` (stereo unspecified) | -14.79 | -40.83 |
| 31 | `CNC(=O)c1ccc(OC)c(NCc2ncc(-c3cccs3)o2)c1` | -0.5668 | -28.1 |
| 32 | `COc1cccc(-c2n[nH]c3c2CN(C(=O)C2=C(C)OCCO2)CC3)c1` | -6.715 | -12.86 |
| 33 | `O=C(O)c1ccc(OC2CCOCC2)cc1` | -5.246 | -27.5 |
| 34 | `Cc1nnc(SCCC(=O)N(C)Cc2ccc(F)cc2Cl)[nH]1` | 0.7317 | -16.14 |
| 35 | `CN(Cc1cccc(OC(F)(F)F)c1)C(=O)c1cnsn1` | 13.37 | -13.73 |
| 36 | `COc1ccc2[nH]cc(CCNC(=O)C3CCCN(C(C)=O)C3)c2c1` (stereo unspecified) | - | -8.418 |
| 37 | `CNC(=O)c1ccc(C2CN(C(=O)c3cncs3)CCO2)nc1` (stereo unspecified) | 0.5766 | 16.82 |
| 38 | `CC(C)c1nnc2n1CCN(Cc1nc3c(F)cccc3[nH]1)C2` | -2.679 | 13.35 |
| 39 | `CCn1cc(NC(=O)NCC(O)COc2ccccc2)cn1` (stereo unspecified) | -3.976 | - |
| 40 | `CO[C@@H]1CO[C@@]2(CCCN(S(=O)(=O)c3ccccc3)C2)C1` | -11.12 | -51.97 |
| 41 | `O=C(O)C(F)(F)F.O=C(O)C(F)(F)F.[H][C@@]12COC[C@]1(CNC(=O)c1ccno1)CN(Cc1cccnc1)C2` | -2.607 | 14.12 |
| 42 | `COCC1CCN(C(=O)c2cccc(S(=O)(=O)NC3CCCC3)c2)C1` (stereo unspecified) | -2.499 | -16.74 |
| 43 | `Cc1cc(Cl)ccc1NCc1ccc(C(=O)N(C)C)[nH]1` | 1.364 | 10.44 |
| 44 | `[H][C@]12CC[C@@]3(N=C(CC)NC3=O)[C@@]1([H])CN(C(=O)Nc1ccc(F)cc1)C2` | -0.4604 | 22.42 |
| 45 | `Cc1nn(C)c2c(N3CCN(C(=O)C4CCC4)CC3)ncnc12` | -2.032 | 46.88 |
| 46 | `COCC1CN(Cc2ccccn2)Cc2nn(C)cc21` (stereo unspecified) | -8.529 | -16.63 |
| 47 | `Cn1nc(COCC2CC2)c2c1CN(CC1CC1)CC2.O=C(O)C(F)(F)F.O=C(O)C(F)(F)F` | 10.84 | -59.62 |
| 48 | `O=C(CO)N1CCCC(N2CCN(c3ccccc3F)CC2)C1` (stereo unspecified) | 6.718 | -51.79 |
| 49 | `CN(C(=O)Cn1nc(-c2ccc(F)cc2)ccc1=O)C1CCS(=O)(=O)C1` (stereo unspecified) | -1.156 | 9.798 |
| 50 | `Cc1cc(C(=O)N2CC[C@]3(C[C@@H](OCc4ccccn4)CO3)C2)c(C)o1.O=C(O)C(F)(F)F` | -6.495 | -720.1 |
| 51 | `CCOCCC(=O)NCC(C)c1ccsc1` (stereo unspecified) | -6.071 | -40.6 |
| 52 | `O=C(NCCCc1cccs1)N1CCCCC1CCO` (stereo unspecified) | 1.37 | -15.49 |
| 53 | `CCc1n[nH]c(C2CN(C(=O)c3cncnc3CC)CCO2)n1` (stereo unspecified) | 6.175 | -10.91 |
| 54 | `CN(Cc1cnn(C)c1)C(=O)NCC1CCS(=O)(=O)C1` (stereo unspecified) | 0.8238 | -0.08655 |
| 55 | `O=C(O)C(F)(F)F.[H][C@@]12OCCN(S(=O)(=O)CCC)[C@@]1([H])CC[C@H]2OCc1ccccn1` | -4.317 | -22.63 |
| 56 | `COCCC1(CO)CCCN(Cc2cc(C(F)(F)F)ccc2F)C1` (stereo unspecified) | -2.482 | -19.64 |
| 57 | `CO[C@@H]1CC[C@@H](NC(=O)CCc2ccc(Cl)cc2)[C@H]1O` | -2.158 | -3.739 |
| 58 | `C=C(C)COc1ccccc1C(=O)N(C)C(C)c1c(C)n[nH]c1C` (stereo unspecified) | 3.794 | -0.05651 |
| 59 | `Cn1cnnc1C1CCCN(C(=O)NCCn2ccnc2)C1` (stereo unspecified) | 4.293 | - |
| 60 | `CC(C)SCc1cccc(NC2CCN(C)C2=O)c1` (stereo unspecified) | 4.435 | -13.3 |
| 61 | `O=C(Nc1cccnc1N1CCSCC1)c1ccc2c(c1)CCC2` | -5.76 | 6.792 |
| 62 | `CCc1n[nH]c(C(=O)NCCn2ccc(C)n2)c1C` | 15.76 | - |

Once more, the final 5:

{"compound": "C=C(C)COc1ccccc1C(=O)N(C)C(C)c1c(C)n[nH]c1C", "stereo": "stereo unspecified", "Toxoplasma": 3.794, "T. brucei": -0.05651}
{"compound": "Cn1cnnc1C1CCCN(C(=O)NCCn2ccnc2)C1", "stereo": "stereo unspecified", "Toxoplasma": 4.293}
{"compound": "CC(C)SCc1cccc(NC2CCN(C)C2=O)c1", "stereo": "stereo unspecified", "Toxoplasma": 4.435, "T. brucei": -13.3}
{"compound": "O=C(Nc1cccnc1N1CCSCC1)c1ccc2c(c1)CCC2", "Toxoplasma": -5.76, "T. brucei": 6.792}
{"compound": "CCc1n[nH]c(C(=O)NCCn2ccc(C)n2)c1C", "Toxoplasma": 15.76}

Measurements from “University of Dundee, Small-Polar-MMV Screening Library” (2021), ChEMBL document CHEMBL3988442.